Legend:
[1] = test system: diazepam-insensitive [3H]Ro15-4513 binding sites in α2(H101R) mice; test: [3H]Ro15-4513 binding to diazepam-insensitive sites, α2(H101R) mouse brain
[2] = test system: diazepam-insensitive [3H]Ro15-4513 binding sites in α3(H126R) mice; test: [3H]Ro15-4513 binding to diazepam-insensitive sites, α3(H126R) mouse brain
[3] = test system: diazepam-insensitive [3H]Ro15-4513 binding sites (α4 and α6 GABAA receptors); test: [3H]Ro15-4513 binding to diazepam-insensitive sites, wild type mouse brain; conditions: wild type mice

CCOC(=O)c1ncn2c1CN(C)C(=O)c1cc(N=[N+]=[N-])ccc1-2 [Ro15-4513]
number of diazepam-insensitive [3H]Ro15-4513 binding sites [1]: 17%
Bmax of diazepam-insensitive [3H]Ro15-4513 binding ([1]; n=3): 0.26±0.01 pmol/mg protein
number of diazepam-insensitive [3H]Ro15-4513 binding sites [2]: 11%
number of diazepam-insensitive [3H]Ro15-4513 binding sites [3]: 5%
